The values below come from US20220251562.

Chains of the proteins cited; added tags and fusions are not shown. A line that says so, or that is headed by a name, gives the form on record, which may keep a tag or linker.
CD3 complex on EL4 cells (Mus musculus), one chain, as listed by the source, chain 3 of 3: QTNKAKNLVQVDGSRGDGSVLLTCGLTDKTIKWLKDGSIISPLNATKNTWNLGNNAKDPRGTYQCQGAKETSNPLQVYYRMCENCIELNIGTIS
CD3 epsilon/gamma heterodimer (Homo sapiens), one chain, as listed by the source, chain 1 of 2: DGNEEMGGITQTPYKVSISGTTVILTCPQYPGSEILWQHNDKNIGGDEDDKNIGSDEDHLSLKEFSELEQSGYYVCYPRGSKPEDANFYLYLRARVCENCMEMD
CD3 complex on EL4 cells (Mus musculus), one chain, as listed by the source, chain 2 of 3: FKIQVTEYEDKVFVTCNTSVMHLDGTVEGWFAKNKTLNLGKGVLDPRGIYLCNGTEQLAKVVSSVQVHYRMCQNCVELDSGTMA
CD3 complex on EL4 cells (Mus musculus), one chain, as listed by the source, chain 1 of 3: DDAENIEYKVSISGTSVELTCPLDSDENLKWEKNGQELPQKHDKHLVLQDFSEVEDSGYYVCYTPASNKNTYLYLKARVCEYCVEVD
CD3 epsilon/gamma heterodimer (Homo sapiens), one chain, as listed by the source, chain 2 of 2: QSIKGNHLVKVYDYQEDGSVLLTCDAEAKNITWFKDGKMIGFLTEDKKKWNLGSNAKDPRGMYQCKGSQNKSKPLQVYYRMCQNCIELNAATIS

The test system of data set [1] is CD3 complex on Jurkat cells (Homo sapiens). As to the kind of experiment: flow cytometry. The note with it: 2'-F pyrimidines; protein on the cell surface; protein details: Jurkat ATCC TIB-152; label: 5'-biotin-TEG. For orientation: Flow cytometry measures light scatter and fluorescence of single cells or particles in a stream.
Data set [2] deals with CD3 complex on EL4 cells (Mus musculus). As to the kind of experiment: flow cytometry. The note with it: 2'-F pyrimidines; dose-dependent staining 3-300 nM, DPBS; protein on the cell surface; protein details: EL4 ATCC CRL-2638; label: 5'-biotin-TEG.
Data set [3] relates to CD3 epsilon/gamma heterodimer (Homo sapiens). As to the kind of experiment: SPR. The note with it: 2'-F pyrimidines, kinetic, DPBS, purified recombinant protein, protein details: C-terminal human IgG1 Fc fusion, AcroBiosystems, label: 5'-biotin-TEG.
For data set [4], the system named is IgG1 Fc (counter target) (Homo sapiens). Briefly: SPR. Conditions: 2'-F pyrimidines; NA, DPBS; purified recombinant protein; protein details: AcroBiosystems; label: 5'-biotin-TEG.
The subject of data set [5] is CD3 epsilon/delta heterodimer (Homo sapiens). Briefly: SPR. The note with it: 2'-F pyrimidines; kinetic, DPBS; purified recombinant protein; protein details: C-terminal human IgG1 Fc fusion, AcroBiosystems; label: 5'-biotin-TEG.
The subject of data set [6] is CD3 epsilon/delta heterodimer (Mus musculus). As to the kind of experiment: SPR. The note with it: 2'-F pyrimidines; kinetic, DPBS; purified recombinant protein; protein details: Sino Biological; label: 5'-biotin-TEG.

pKd: −log10 of the molar value. Construct, isoform or probe ends are uncertain for at least one entry. For some of these results: A negative result means that nothing was seen under these conditions. For some of these results: Results from cells or extracts need not show a direct contact.

A word on the pKd: it is the negative decadic logarithm of the Kd, by convention in mol/L. Regarding “UCUAAGCAAUAUUGUUUGCUUUUGCAGCGAUUCUGUUUCGAUAUAUUA [ARACD3-0010209]”, the results for the binding result in data set [1], in data set [2] and in data set [4] were “binds”, “binds” and “no binding”, respectively. The pKd is 7.69 in data set [3] and 7.66 in data set [5].
As to “UUCAAGAUAAUGUAAUUAUUUUUGCAGCGAUUCUUGUUUUGUUCGAUUU [ARACD3-2980001]”, the pKd was 6.64 in data set [3], 6.62 in data set [5] and 7.58 in data set [6]. In data set [4], the binding result is given as “no binding”.
As for “UAUAGACUUUAAUGUCUCAUUUUCGCAGCGAUUCUUGUUUAUUUAACAUA [ARACD3-3700006]”, the binding result was “binds” in data set [1], “binds” in data set [2] and “no binding” in data set [4]. The pKd in data set [3] (printed ARACD3-370006) was 7.68; in data set [5], 7.12; in data set [6] it was 7.62.
“CAAAGUUCAAGAUUGAGCUUUUUGCAGCGAUUCUUGUUUUAUCAAACGA [ARACD3-0270039]”: the figures for the pKd in data set [3], in data set [5] and in data set [6] were 6.82, 6.72 and 7.75, respectively. In addition, in data set [4], the binding result is reported as “no binding”.
